The supplement of paper PMC12067093, “Discovery and optimisation of a covalent ligand for TRIM25 and its application to targeted protein ubiquitination” (Chemical Science, 2025)
The list shows a part of the results.

Chains of the proteins cited; added tags and fusions are not shown. Lines headed by an entry give the natural chain unless they say otherwise; changes in a name come on top.
UniProt Q15052: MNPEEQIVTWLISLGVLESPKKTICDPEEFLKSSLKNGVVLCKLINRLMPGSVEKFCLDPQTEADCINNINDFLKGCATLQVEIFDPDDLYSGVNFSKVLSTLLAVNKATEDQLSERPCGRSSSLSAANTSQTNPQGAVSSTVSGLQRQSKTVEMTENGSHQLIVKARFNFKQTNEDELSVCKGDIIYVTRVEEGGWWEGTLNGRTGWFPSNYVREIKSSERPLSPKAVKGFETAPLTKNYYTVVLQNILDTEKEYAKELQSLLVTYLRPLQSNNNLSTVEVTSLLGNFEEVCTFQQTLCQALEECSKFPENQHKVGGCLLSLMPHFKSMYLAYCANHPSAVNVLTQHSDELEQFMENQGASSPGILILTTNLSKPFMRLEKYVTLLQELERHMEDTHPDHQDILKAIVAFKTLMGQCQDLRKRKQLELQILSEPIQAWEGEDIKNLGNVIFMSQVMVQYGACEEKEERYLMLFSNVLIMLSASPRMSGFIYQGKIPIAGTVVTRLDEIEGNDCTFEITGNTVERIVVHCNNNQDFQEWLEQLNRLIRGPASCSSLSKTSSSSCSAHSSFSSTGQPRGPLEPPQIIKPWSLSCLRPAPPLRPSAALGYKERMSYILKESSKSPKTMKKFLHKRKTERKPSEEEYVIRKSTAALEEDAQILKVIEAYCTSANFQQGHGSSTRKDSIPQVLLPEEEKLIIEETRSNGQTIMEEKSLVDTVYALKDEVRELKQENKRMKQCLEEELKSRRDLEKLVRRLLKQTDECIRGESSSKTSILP
UniProt Q7Z6I6: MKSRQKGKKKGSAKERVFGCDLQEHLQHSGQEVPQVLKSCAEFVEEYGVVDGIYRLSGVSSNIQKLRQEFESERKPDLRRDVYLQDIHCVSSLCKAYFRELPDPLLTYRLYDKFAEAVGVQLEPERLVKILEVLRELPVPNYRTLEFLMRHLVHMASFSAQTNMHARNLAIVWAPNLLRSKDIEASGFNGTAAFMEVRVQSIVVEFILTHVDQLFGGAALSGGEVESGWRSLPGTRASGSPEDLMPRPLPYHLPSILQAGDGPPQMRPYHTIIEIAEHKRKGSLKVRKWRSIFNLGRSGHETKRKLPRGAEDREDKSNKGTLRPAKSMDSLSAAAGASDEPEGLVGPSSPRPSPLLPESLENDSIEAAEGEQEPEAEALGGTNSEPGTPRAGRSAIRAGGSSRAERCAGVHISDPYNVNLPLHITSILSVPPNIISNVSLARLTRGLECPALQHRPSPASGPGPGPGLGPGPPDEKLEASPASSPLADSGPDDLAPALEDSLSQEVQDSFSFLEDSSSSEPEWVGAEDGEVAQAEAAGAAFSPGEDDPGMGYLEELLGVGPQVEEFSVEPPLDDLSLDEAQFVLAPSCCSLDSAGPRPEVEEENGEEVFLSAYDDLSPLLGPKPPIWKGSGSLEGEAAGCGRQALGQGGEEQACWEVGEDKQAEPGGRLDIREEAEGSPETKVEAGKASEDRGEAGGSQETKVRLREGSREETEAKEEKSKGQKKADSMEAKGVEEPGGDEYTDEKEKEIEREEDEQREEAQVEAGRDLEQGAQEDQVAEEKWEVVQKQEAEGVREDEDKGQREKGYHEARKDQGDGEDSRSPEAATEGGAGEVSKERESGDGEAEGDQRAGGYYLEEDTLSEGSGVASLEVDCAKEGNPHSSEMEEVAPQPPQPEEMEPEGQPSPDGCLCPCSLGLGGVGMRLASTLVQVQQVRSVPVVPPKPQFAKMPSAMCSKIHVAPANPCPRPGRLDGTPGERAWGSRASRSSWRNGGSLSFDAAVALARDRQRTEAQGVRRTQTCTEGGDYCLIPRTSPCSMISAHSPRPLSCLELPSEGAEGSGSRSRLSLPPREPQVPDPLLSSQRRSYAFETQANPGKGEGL
UniProt Q8IUR7, whole entry, looked up: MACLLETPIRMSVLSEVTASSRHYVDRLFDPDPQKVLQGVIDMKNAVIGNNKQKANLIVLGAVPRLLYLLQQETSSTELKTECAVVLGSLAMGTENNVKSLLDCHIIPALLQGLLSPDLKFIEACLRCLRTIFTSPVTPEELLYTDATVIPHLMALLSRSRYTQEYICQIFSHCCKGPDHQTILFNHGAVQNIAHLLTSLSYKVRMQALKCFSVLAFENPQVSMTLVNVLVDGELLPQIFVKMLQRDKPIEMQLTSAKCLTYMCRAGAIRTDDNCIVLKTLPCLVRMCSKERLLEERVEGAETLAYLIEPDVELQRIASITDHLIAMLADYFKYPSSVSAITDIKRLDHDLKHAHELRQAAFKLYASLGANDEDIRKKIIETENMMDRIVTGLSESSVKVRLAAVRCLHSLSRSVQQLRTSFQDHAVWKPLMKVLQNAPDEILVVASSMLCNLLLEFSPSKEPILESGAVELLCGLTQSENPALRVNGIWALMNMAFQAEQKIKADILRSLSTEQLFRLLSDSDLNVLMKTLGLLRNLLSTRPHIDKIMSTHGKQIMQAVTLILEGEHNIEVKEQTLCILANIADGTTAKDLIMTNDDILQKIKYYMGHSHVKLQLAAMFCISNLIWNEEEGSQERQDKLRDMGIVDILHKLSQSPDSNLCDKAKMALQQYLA
UniProt Q68CP9, whole entry, looked up: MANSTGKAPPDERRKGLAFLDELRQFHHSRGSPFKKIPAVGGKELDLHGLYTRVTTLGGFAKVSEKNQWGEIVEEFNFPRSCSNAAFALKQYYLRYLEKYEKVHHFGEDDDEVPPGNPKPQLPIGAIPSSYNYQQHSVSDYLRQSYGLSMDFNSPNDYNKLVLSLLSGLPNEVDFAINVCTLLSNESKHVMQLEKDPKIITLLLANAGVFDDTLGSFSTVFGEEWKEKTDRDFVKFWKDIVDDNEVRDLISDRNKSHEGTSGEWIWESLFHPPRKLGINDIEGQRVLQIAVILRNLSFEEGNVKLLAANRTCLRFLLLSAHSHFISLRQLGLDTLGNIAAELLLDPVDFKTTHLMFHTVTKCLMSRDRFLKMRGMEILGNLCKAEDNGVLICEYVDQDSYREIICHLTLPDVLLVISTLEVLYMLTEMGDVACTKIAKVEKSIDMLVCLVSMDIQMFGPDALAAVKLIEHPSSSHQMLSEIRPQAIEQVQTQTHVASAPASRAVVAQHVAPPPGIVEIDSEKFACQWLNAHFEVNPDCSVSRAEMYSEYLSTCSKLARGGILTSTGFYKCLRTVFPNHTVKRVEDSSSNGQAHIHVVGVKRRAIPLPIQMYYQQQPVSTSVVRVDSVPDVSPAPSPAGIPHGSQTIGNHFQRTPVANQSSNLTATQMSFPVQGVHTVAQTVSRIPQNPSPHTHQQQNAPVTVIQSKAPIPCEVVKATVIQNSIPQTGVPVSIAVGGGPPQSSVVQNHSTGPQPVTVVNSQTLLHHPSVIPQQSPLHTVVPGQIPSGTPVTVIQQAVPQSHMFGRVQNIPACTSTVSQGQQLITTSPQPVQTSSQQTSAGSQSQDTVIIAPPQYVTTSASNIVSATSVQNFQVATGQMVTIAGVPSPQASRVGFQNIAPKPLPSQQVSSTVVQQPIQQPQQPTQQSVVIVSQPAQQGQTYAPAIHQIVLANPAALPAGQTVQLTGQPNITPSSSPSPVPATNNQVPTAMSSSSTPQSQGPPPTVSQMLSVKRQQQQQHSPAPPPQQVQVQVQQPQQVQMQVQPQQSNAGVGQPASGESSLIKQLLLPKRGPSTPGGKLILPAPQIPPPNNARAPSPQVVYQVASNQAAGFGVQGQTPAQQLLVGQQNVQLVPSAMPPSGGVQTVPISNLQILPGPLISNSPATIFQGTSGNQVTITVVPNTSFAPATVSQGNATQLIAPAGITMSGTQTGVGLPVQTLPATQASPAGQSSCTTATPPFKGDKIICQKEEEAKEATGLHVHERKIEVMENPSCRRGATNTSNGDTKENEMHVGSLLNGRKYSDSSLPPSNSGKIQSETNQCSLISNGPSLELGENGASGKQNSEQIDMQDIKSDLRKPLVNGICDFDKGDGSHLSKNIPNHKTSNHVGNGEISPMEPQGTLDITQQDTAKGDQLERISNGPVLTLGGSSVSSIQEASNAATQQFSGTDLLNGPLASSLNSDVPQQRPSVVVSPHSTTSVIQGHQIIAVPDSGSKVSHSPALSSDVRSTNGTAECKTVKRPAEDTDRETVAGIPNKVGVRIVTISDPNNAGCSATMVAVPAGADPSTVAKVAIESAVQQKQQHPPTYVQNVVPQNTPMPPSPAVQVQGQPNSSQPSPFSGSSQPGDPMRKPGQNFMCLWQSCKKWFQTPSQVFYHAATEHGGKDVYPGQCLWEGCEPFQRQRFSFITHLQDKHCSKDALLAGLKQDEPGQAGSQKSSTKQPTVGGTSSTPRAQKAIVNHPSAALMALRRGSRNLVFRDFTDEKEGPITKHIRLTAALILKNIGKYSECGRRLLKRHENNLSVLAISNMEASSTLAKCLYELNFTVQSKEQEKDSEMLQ
UniProt P07741: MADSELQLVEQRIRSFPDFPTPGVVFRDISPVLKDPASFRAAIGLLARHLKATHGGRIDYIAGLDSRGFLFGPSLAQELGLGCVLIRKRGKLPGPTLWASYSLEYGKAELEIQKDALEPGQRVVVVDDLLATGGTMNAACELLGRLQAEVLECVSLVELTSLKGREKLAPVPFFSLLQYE
UniProt P42331: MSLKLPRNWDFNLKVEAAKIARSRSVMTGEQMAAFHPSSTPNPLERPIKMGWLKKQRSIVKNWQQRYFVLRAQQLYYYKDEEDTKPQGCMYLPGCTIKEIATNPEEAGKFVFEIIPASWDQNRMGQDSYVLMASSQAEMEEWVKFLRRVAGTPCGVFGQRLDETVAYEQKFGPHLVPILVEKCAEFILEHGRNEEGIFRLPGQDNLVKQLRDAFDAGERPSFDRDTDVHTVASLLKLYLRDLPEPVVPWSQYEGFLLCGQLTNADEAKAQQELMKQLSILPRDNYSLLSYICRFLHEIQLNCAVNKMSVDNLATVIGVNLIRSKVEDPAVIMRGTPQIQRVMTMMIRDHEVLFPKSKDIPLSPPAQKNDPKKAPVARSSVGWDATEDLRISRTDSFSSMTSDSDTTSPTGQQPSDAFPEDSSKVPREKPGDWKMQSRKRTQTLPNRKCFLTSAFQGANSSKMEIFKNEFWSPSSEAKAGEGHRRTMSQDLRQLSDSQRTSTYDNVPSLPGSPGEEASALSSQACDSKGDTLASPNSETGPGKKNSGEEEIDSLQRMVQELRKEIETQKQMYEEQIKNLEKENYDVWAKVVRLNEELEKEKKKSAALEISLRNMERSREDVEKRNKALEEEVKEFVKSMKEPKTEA
UniProt P27540, whole entry, looked up: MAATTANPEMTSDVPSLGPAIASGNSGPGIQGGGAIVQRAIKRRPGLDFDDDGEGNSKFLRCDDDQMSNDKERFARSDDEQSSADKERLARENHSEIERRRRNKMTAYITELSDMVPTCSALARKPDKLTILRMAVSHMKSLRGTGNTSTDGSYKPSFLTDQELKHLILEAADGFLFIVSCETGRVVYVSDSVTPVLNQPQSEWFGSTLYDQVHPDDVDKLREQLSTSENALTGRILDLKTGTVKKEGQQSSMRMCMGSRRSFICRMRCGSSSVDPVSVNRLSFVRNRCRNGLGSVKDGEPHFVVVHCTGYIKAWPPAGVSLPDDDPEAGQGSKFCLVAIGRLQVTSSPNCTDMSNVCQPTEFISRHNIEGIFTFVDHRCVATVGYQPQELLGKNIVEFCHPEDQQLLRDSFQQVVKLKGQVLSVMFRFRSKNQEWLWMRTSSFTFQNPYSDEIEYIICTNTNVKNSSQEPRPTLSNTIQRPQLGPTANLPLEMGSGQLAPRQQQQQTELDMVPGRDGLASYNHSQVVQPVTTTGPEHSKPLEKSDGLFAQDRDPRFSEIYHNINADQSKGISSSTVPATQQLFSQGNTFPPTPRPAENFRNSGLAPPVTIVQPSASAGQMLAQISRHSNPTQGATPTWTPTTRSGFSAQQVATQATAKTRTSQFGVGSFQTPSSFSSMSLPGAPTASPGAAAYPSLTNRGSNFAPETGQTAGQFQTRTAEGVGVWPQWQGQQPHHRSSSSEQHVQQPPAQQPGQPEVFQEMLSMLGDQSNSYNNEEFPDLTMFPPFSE
UniProt P62330: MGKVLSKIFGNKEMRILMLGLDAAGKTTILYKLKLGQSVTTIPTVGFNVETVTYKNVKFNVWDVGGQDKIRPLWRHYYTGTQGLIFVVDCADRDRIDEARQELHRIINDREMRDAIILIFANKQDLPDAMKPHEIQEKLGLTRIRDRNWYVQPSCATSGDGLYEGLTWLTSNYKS
UniProt P49407: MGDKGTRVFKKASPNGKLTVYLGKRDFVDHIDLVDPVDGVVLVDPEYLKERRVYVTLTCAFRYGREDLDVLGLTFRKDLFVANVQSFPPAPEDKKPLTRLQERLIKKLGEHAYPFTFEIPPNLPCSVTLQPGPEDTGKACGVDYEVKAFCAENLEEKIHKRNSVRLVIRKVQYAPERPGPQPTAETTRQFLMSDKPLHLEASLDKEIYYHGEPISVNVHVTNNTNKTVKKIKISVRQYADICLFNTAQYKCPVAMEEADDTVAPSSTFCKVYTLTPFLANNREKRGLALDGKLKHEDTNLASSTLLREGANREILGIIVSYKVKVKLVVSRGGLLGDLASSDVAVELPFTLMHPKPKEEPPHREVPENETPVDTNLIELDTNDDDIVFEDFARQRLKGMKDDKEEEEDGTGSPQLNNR

Compound: Cc1cc(ccc1-c1ccccc1)C(=O)N1CCCN(CC1)C(=O)CCl [compound 10]
Assay: probe-labelled cysteine peptide fold change vs DMSO (competition) (log2 fold change); higher = less target engagement (more negative = stronger competition)
Conditions: THP-1, incubation time: 4 h
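Also: competitive profiling in live THP-1 cells: cysteine peptides tagged with an iodoacetamide desthiobiotin (IA-DTB) probe, intensity after compound treatment relative to DMSO-treated cells.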

| Target | probe-labelled cysteine peptide fold change (10 µM) | probe-labelled cysteine peptide fold change (50 µM) |
| --- | --- | --- |
| ARHGEF6_Q15052_564_TSSSSCSAHSSFSSTGQPR (UniProt Q15052) | 0.088 | -0.422 |
| ARHGAP9_Q9BRR9_666_AALALSESEQCLSQIQELIGSMPKPNHDTLR (UniProt Q9BRR9) | -0.0897 | -0.281 |
| ARPC1B_O15143_227_VAWVSHDSTVCLADADK (UniProt O15143) | 0.251 | 0.312 |
| ARHGEF1_Q92888_595_VELAAECCR (UniProt Q92888) | 0.119 | 0.0448 |
| ARHGEF18_Q6ZSZ5_295_ECVNGHQLLQGTFSGPSSCPLCGKPFLSSASLK (UniProt Q6ZSZ5) | -0.0564 | -0.0988 |
| ARHGEF10L_Q9HCE6_988_TLLSLEDAVWASCGPR (UniProt Q9HCE6) | -0.485 | -0.205 |
| ARID1B_Q8NFD5_1919_SRDETPLCTIAHWQDSLAK (UniProt Q8NFD5) | -0.0638 | 0.119 |
| ARHGAP35_Q9NRY4_663_LPVNSFQTPTFQPHGCLCLYNSK (UniProt Q9NRY4) | 0.0344 | -0.0768 |
| ARID1A_O14497_1968_ILEDEPHSKDETPLCTLLDWQDSLAK (UniProt O14497) | -0.0937 | -0.036 |
| ARHGAP30_Q7Z6I6_654_QALGQGGEEQACWEVGEDK (UniProt Q7Z6I6) | -0.272 |  |
| AQR_O60306_1039_IIAMTCTHAALK (UniProt O60306) | 0.0755 | 0.282 |
| ARHGEF10_O15013_959_ILCMLYVPVEEK (UniProt O15013) | 0.178 | 0.221 |
| ARAF_P10398_192_TQHCDPEHFPFPAPANAPLQR (UniProt P10398) | -0.229 | -0.296 |
| ARHGEF2_Q92974_68+71_EALICPTCNVTIHNR (UniProt Q92974) | -0.0269 | -0.329 |
| ARHGEF2_Q92974_306_RQALCPGSTR (UniProt Q92974) | 0.0442 | 0.000311 |
| ARMC8_Q8IUR7_578_EQTLCILANIADGTTAK (UniProt Q8IUR7) | -0.0305 | 0.351 |
| ARHGAP18_Q8N392_637_CLDDDTYMK (UniProt Q8N392) | 0.0982 | -0.0344 |
| ARMC8_Q8IUR7_264_CLTYMCR (UniProt Q8IUR7) | 0.163 | -0.117 |
| ARHGAP4_P98171_34_CLELQGELR (UniProt P98171) | -0.0772 | 0.221 |
| APPL1_Q9UKG1_328_GDVAGGLAMDIDNCSVMAVDCEDRR (UniProt Q9UKG1) | -0.305 | 0.0273 |
| ARHGEF10_O15013_808+809_AADCCR (UniProt O15013) | -0.24 | -0.976 |

| Target | probe-labelled cysteine peptide fold change (10 µM) | probe-labelled cysteine peptide fold change (50 µM) |
| --- | --- | --- |
| ARPC1A_Q92747_279_GCLTFVSK (UniProt Q92747) | -0.013 | 0.00475 |
| ARHGAP30_Q7Z6I6_1021_RTQTCTEGGDYCLIPR (UniProt Q7Z6I6) | 0.00592 |  |
| ARPC5_O15511_45_FVDEEDGGDGQAGPDEGEVDSCLR (UniProt O15511) | 0.177 | 0.233 |
| ARHGEF12_Q9NZN5_1128_TVWQDLICR (UniProt Q9NZN5) | 0.136 | -0.166 |
| ARAP1_Q96P48_803_ASEIVCLAVPPPDTHGFEHTFEVYTEGER (UniProt Q96P48) | -0.273 | 0.107 |
| ARHGEF18_Q6ZSZ5_494_LFPCADDLLETHSHFLAR (UniProt Q6ZSZ5) | -0.241 | -0.113 |
| ARPC1B_O15143_26_DRTQIAICPNNHEVHIYEK (UniProt O15143) | 0.0263 | -0.124 |
| ARHGEF1_Q92888_595_EKVELAAECCR (UniProt Q92888) | 0.135 | -0.557 |
| APPL1_Q9UKG1_616_ICDSVGLAK (UniProt Q9UKG1) | 0.0218 | 0.104 |
| ARID2_Q68CP9_1271_IEVMENPSCR (UniProt Q68CP9) | -0.0221 | -0.133 |
| ARID1B_Q8NFD5_2074_LVLETLCK (UniProt Q8NFD5) | 0.4 | 0.248 |
| APRT_P07741_153_LQAEVLECVSLVELTSLK (UniProt P07741) | 0.175 | 0.125 |
| ARHGEF2_Q92974_282_TGMLEELHLEPGVVQGLFPCVDELSDIHTR (UniProt Q92974) | -0.113 | -0.0247 |
| APPL1_Q9UKG1_368_DHEEWICTINNISK (UniProt Q9UKG1) | -0.0292 | 0.0951 |
| ARL1_P40616_80+95_CYYSNTDAVIYVVDSCDRDR (UniProt P40616) | -0.17 | -0.252 |
| ARL2_P36404_153+157_SHHWCIQGCSAVTGENLLPGIDWLLDDISSR (UniProt P36404) | 0.254 | -0.408 |
| ARID2_Q68CP9_525_FACQWLNAHFEVNPDCSVSR (UniProt Q68CP9) | 0.229 | 0.283 |
| AQR_O60306_681_NLMNTDCVVPDWLHDIILGYGDPSSAHYSK (UniProt O60306) | 0.197 | 0.142 |
| ARAP3_Q8WWN8_527_QCAGQHR (UniProt Q8WWN8) | -0.193 | 0.337 |
| AQR_O60306_1039_IIAMTCTHAALKR (UniProt O60306) | 0.202 | 0.116 |
| ARHGEF17_Q96PE2_1439_LELCATRPEGTDSYIFEFPHPDAR (UniProt Q96PE2) | -0.165 | -0.0257 |

4 entries from above in another layout:
AQR_O60306_1039_IIAMTCTHAALK (UniProt O60306)
  probe-labelled cysteine peptide fold change (10 µM): 0.0755
  probe-labelled cysteine peptide fold change (50 µM): 0.282
ARHGEF10_O15013_959_ILCMLYVPVEEK (UniProt O15013)
  probe-labelled cysteine peptide fold change (10 µM): 0.178
  probe-labelled cysteine peptide fold change (50 µM): 0.221
ARAF_P10398_192_TQHCDPEHFPFPAPANAPLQR (UniProt P10398)
  probe-labelled cysteine peptide fold change (10 µM): -0.229
  probe-labelled cysteine peptide fold change (50 µM): -0.296
ARHGEF2_Q92974_68+71_EALICPTCNVTIHNR (UniProt Q92974)
  probe-labelled cysteine peptide fold change (10 µM): -0.0269
  probe-labelled cysteine peptide fold change (50 µM): -0.329

(list continues)

| Target | probe-labelled cysteine peptide fold change (10 µM) | probe-labelled cysteine peptide fold change (50 µM) |
| --- | --- | --- |
| ARID1B_Q8NFD5_1093_LYVCVK (UniProt Q8NFD5) | 0.173 | 0.358 |
| ARIH2_O95376_183_DGVGVGVSCMAQDCPLR (UniProt O95376) | -0.11 | -0.232 |
| ARHGAP19_Q14CB8_359_VDSCPHQEETQHHTEEALR (UniProt Q14CB8) | 0.175 | -0.0273 |
| ARHGAP25_P42331_89_AQQLYYYKDEEDTKPQGCMYLPGCTIK (UniProt P42331) | 0.0868 | -0.124 |
| ARMT1_Q9H993_159_EQNFYGSQESIIALCTHLQQLIR (UniProt Q9H993) | 0.236 | 0.254 |
| ARID1A_O14497_1827_NDPFVVDCSDK (UniProt O14497) | -0.265 | 0.0739 |
| ARNT_P27540_336_FCLVAIGR (UniProt P27540) | -0.202 | -0.013 |
| ARNT_P27540_62_CDDDQMSNDK (UniProt P27540) | -0.196 | -0.325 |
| ARHGEF6_Q15052_25_KTICDPEEFLK (UniProt Q15052) | -0.21 | -0.873 |
| ARL6IP4_Q66PJ3_243_ASTAPGAEASPSPCITER (UniProt Q66PJ3) | -0.178 | 0.108 |
| ARHGEF6_Q15052_738_QCLEEELK (UniProt Q15052) | 0.0621 | -0.356 |
| ARHGEF1_Q92888_752_KNWCALITETAGSLK (UniProt Q92888) | -0.22 | -0.795 |
| ARHGAP25_P42331_448_CFLTSAFQGANSSK (UniProt P42331) | -0.526 | -1.52 |
| ARL14EP_Q8N8R7_5_MDPCSVGVQLR (UniProt Q8N8R7) | -0.166 | -0.127 |
| ARF6_P62330_90_HYYTGTQGLIFVVDCADRDRIDEAR (UniProt P62330) | 0.0501 | -0.303 |
| APPL1_Q9UKG1_570_LTFPLPCVVLYATHQENK (UniProt Q9UKG1) | -0.352 | 0.17 |
| ARHGAP45_Q92619_136_ECVLRDDLLEAR (UniProt Q92619) | -0.216 | -0.128 |
| ARHGAP30_Q7Z6I6_965_IHVAPANPCPR (UniProt Q7Z6I6) | -0.113 | -0.2 |
| ARHGAP27_Q6ZUM4_703_DQVFGCALAALCER (UniProt Q6ZUM4) | 0.0728 | 0.139 |
| ARPC1B_O15143_26_TQIAICPNNHEVHIYEK (UniProt O15143) | 0.0629 | -0.0227 |
| ARHGAP45_Q92619_739+747_CLETLAIQCGHK (UniProt Q92619) | -0.116 | -0.333 |

| Target | probe-labelled cysteine peptide fold change (10 µM) | probe-labelled cysteine peptide fold change (50 µM) |
| --- | --- | --- |
| ARID2_Q68CP9_82_SCSNAAFALK (UniProt Q68CP9) | -0.0891 | -0.0578 |
| ARAF_P10398_597_TQADELPACLLSAAR (UniProt P10398) | -0.464 | -0.595 |
| ARHGEF16_Q5VV41_438_LPLLMDTLCLK (UniProt Q5VV41) | 0.117 | 0.442 |
| ARFGEF1_Q9Y6D6_1050_CISQLELAQLIGTGVKPR (UniProt Q9Y6D6) | 0.0713 | -0.125 |
| ARIH1_Q9Y4X5_281_WCPAPDCHHVVK (UniProt Q9Y4X5) | -0.0464 | -0.0371 |
| ARHGAP30_Q7Z6I6_640_GSGSLEGEAAGCGR (UniProt Q7Z6I6) | -0.453 | -0.109 |
| ARHGEF2_Q92974_342_TYSEFCSR (UniProt Q92974) | 0.0873 | 0.0127 |
| AQR_O60306_250_VHYCER (UniProt O60306) | 0.122 | 0.347 |
| ARMT1_Q9H993_398_KWEFSVPFHQALNGFHPAPLCTIR (UniProt Q9H993) | -0.0109 | 0.0403 |
| ARPC1B_O15143_342_CSQFCTTGMDGGMSIWDVK (UniProt O15143) | 0.0381 | 0.0275 |
| ARL2_P36404_102_MQDCQR (UniProt P36404) | 0.0663 | 0.348 |
| ARHGEF18_Q6ZSZ5_887_SAMSEIEGIQSLICR (UniProt Q6ZSZ5) | -0.16 | -0.241 |
| ARRB1_P49407_251_CPVAMEEADDTVAPSSTFCK (UniProt P49407) | 0.0122 | 0.108 |
| ARHGAP45_Q92619_747_CLETLAIQCGHK (UniProt Q92619) | -0.0524 | -0.154 |
| ARHGAP26_Q9UNA1_11+12_GLPALEFSDCCLDSPHFR (UniProt Q9UNA1) | -0.174 | 0.0714 |
| ARRB1_P49407_59_RVYVTLTCAFR (UniProt P49407) | -0.301 | 0.047 |
| ARHGAP4_P98171_330_VLEVHATVFCPPLR (UniProt P98171) | 0.14 | 0.139 |
| ARHGEF18_Q6ZSZ5_105_LSLDASAVDEEPCLPR (UniProt Q6ZSZ5) | -0.0848 | 0.182 |
| ARHGAP17_Q68EM7_53_LVACFQGQHGTDAER (UniProt Q68EM7) | 0.108 | 0.131 |
| ARID2_Q68CP9_1271_KIEVMENPSCR (UniProt Q68CP9) | -0.27 | -0.345 |
